# No constants are given. Whether binding was seen depends on the method and setting. In cells and extracts the contact can be indirect. Some entries that bind do so weakly or less than the wild type. Tags and fused reporters may be left off the sequences shown.
# The chains behind the UniProt entries cited, without tags or fusion partners.
# UniProt P23458: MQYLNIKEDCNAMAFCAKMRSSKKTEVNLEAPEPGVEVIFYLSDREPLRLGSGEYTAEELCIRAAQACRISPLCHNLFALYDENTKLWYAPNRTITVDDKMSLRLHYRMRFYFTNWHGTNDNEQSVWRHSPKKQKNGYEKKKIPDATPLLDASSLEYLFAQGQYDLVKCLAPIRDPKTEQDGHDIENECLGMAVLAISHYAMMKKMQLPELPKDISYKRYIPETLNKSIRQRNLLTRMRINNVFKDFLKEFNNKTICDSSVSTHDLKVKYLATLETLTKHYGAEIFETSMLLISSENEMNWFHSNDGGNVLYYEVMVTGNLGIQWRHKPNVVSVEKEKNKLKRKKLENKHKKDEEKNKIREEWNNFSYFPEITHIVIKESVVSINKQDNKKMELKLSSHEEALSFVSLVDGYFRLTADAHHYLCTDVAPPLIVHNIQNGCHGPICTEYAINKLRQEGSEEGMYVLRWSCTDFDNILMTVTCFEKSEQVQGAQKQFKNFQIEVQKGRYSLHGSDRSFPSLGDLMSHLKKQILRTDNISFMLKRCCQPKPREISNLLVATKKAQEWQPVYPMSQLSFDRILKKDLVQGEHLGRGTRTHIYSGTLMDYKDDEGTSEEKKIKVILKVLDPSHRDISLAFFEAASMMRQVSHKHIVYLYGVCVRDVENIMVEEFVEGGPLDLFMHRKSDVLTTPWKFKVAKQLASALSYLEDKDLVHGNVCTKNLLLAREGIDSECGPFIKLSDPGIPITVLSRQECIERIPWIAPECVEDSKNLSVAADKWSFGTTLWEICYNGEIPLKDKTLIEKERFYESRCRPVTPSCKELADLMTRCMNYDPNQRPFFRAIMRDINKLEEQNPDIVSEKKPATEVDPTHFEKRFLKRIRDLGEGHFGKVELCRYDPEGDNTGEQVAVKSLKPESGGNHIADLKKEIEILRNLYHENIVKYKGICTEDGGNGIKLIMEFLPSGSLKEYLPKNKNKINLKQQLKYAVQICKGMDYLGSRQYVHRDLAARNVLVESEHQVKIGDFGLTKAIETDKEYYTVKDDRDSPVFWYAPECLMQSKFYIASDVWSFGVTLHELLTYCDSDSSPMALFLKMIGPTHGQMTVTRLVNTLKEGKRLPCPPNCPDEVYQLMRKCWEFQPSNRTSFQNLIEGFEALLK
# UniProt P02538: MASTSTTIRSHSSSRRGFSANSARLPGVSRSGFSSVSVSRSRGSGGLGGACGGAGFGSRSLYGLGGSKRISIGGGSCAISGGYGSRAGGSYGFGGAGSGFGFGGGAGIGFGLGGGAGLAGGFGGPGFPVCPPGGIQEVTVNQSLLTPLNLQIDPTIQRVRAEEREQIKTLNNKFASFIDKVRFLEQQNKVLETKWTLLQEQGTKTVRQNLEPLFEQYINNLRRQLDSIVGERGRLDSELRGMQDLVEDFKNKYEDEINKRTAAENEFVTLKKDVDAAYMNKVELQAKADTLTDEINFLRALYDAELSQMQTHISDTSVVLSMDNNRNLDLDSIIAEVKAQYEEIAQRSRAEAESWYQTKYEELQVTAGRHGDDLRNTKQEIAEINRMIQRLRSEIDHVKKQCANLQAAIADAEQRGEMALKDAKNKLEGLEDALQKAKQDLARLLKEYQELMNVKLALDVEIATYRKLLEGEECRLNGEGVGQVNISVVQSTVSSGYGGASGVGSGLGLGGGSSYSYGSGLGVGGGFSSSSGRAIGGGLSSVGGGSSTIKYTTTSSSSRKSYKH
# Molecular target: Flag-JAK1 (Janus kinase 1) (human) (UniProt P23458)
# Assay: co-IP; plasmids co-transfected into HEK293T cells for 48 h; MG132 (50 uM) 4 h; NP-40 lysis buffer; anti-Flag magnetic beads 2 h; washes in 25 mM Tris pH 8.0, 150 mM NaCl, 0.2% NP40; Western blotting; with or without a third plasmid (KRT6A or RNF41)
row,binding,Molecule
1,binds,"KRT6A (keratin 6A), expressed from the 'KRT6A plasmid' (from UniProt P02538 1-564)"
2,binds,"HA-RNF41 (ring finger protein 41), full length (enzyme, UniProt Q9H4P4 1-317) MGYDVTRFQGDVDEDLICPICSGVLEEPVQAPHCEHAFCNACITQWFSQQQTCPVDRSVVTVAHLRPVPRIMRNMLSKLQIACDNAVFGCSAVVRLDNLMSHLSDCEHNPKRPVTCEQGCGLEMPKDELPNHNCIKHLRSVVQQQQTRIAELEKTSAEHKHQLAEQKRDIQLLKAYMRAIRSVNPNLQNLEETIEYNEILEWVNSLQPARVTRWGGMISTPDAVLQAVIKRSLVESGCPASIVNELIENAHERSWPQGLATLETRQMNRRYYENYVAKRIPGKQAVVVMACENQHMGDDMVQEPGLVMIFAHGVEEI"
3,binds,"HA-RNF41-NT (RNF41 N-terminal domain, residues 1-133) (domain or fragment, UniProt Q9H4P4 1-133) MGYDVTRFQGDVDEDLICPICSGVLEEPVQAPHCEHAFCNACITQWFSQQQTCPVDRSVVTVAHLRPVPRIMRNMLSKLQIACDNAVFGCSAVVRLDNLMSHLSDCEHNPKRPVTCEQGCGLEMPKDELPNHN"

# Source: article PMC12065298
